In paper PMC12152034:
These are yes or no findings as the source states them, for the method shown. In cells and extracts the contact can be indirect. Some results given as binding are weak or reduced against the parent protein; the word gives no strength.

Chains of the proteins cited; added tags and fusions are not shown.
UniProt Q9H4L4: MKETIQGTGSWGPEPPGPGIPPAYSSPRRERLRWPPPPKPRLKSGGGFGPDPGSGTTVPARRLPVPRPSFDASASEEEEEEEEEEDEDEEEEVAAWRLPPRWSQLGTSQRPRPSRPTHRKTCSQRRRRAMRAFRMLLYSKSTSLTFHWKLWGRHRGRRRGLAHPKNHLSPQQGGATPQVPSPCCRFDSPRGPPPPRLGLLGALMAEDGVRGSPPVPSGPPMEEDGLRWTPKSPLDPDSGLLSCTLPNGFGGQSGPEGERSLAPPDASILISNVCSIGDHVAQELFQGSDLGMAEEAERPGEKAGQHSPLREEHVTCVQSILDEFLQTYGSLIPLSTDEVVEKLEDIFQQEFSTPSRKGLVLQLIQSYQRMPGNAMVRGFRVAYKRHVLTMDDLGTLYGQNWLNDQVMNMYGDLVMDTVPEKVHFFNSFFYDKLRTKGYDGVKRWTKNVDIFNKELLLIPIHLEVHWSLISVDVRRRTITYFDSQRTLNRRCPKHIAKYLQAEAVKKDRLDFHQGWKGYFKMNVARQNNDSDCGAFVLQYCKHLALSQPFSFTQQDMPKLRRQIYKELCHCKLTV
UniProt Q07687: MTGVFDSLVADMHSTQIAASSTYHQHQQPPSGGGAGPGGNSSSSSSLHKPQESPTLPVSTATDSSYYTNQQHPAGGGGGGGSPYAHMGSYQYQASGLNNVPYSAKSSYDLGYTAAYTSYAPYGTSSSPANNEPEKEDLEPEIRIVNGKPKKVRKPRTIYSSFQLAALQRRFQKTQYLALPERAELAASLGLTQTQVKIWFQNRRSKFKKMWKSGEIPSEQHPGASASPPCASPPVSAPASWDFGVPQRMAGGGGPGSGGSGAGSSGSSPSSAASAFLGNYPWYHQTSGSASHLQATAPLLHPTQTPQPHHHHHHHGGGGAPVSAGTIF

Target: SENP3 (human (endogenous in BMSCs)) (UniProt Q9H4L4)
Experiment: co-IP; BMSC lysate incubated with anti-SENP3 or anti-DLX2 antibody at 4 °C overnight, protein A&G beads for 4 h, Western blot

Substance: DLX2 (from UniProt Q07687 1-328)
- binding: binds
